According to article PMC7819943, “Rice protein-binding microarrays: a tool to detect cis-acting elements near promoter regions in rice”:
Some of the results follow.

Biological target: T1, OsSMF1 (Oryza sativa, UniProt Q6ZLB0 1-436)
T1 sequence: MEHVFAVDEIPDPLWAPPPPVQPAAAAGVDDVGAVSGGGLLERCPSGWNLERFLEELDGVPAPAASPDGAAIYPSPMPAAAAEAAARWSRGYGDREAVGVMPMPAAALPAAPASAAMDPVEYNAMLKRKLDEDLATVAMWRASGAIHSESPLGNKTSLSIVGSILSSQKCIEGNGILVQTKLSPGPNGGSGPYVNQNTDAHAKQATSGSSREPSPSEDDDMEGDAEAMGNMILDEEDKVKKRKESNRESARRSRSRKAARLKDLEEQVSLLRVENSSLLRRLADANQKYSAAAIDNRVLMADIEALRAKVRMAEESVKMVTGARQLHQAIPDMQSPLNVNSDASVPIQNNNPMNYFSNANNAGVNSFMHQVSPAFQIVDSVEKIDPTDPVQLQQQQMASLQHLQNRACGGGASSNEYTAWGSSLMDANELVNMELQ
Experiment: protein-binding microarray (RPBM); PBS, 2% BSA, 51.3 ng/ul salmon testes DNA, 50 uM zinc acetate, 200 nM TF, 25 C, 1 h; high values mean tight binding
Settings: protein: recombinant; tags: N-terminal polyhistidine and DsRed monomer fusion (pET32a); chain copies: 2; label: CyDye5-dUTP incorporated in the synthesized complementary strand; 3' TTTTT single-stranded linker to array surface; dsDNA, one strand shown
In short: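 The binding signal for each feature is its fluorescence intensity in arbitrary units. An Axon 4000B scanner was used to read a custom Agilent array that had been made double-stranded with Cy5-dUTP primer extension, blocked with 2% BSA, incubated at 25 °C for 1 h with 200 nM protein in PBS, 2% BSA, salmon testes DNA and 50 µM zinc acetate, and washed. The protein was an N-terminal polyhistidine–DsRed transcription factor fusion from E. coli BL21-CodonPlus, purified on Ni–NTA.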

Sequence	binding signal
CTGCTGTTGAGTCAGCTCAGTTAGTTCTCTCCATTTTAGACGGAGTCACCTAGTGCAG	9430 fluorescence intensity (a.u.)
GGTAATAGTTTTAGAGGCATTCGATGTATAGTATGTATACCGGAGTCACCTAGTGCAG	3180 fluorescence intensity (a.u.)
TGTTTAAGGCTTTAAGCTTGCGTGGCAGCCTGTCAGGCAACGGAGTCACCTAGTGCAG	14600 fluorescence intensity (a.u.)
AATATAGTGTTGTTTGGTACTATATCGAGTTGGATTAGTTCGGAGTCACCTAGTGCAG	3190 fluorescence intensity (a.u.)
CTACATGTTCTCTGAATCTGAATGAGCTGTATTGTGCACTCGGAGTCACCTAGTGCAG	5500 fluorescence intensity (a.u.)
TAATTCTCTGGATGTGGCCGTGACGAGGACGCGACCGGCCCGGAGTCACCTAGTGCAG	5360 fluorescence intensity (a.u.)
AATTCTCACTTGACTCATGATTATCATCTCTACTATCGAACGGAGTCACCTAGTGCAG	4140 fluorescence intensity (a.u.)
CGGGCCCCACCCGCCACCAACCCCACGTGCTCCCGTATTCCGGAGTCACCTAGTGCAG	3310 fluorescence intensity (a.u.)
TCAGTGGCTTAAAGTCTCAATGCGTCACGCGCGCCGGGCTCGGAGTCACCTAGTGCAG	7180 fluorescence intensity (a.u.)
GGGGCAAAATAAGGTTTACACATGCATGAACCAGAAGAAACGGAGTCACCTAGTGCAG	3170 fluorescence intensity (a.u.)
TATATAAAATGCATCAGATCAGATGCATCGATGAACCAGTCGGAGTCACCTAGTGCAG	3240 fluorescence intensity (a.u.)
CCAAAGCGCTCAGGCCCGTCCAGCCCACGTAGACGACACGCGGAGTCACCTAGTGCAG	3210 fluorescence intensity (a.u.)
TCCCGGCGTGTGGTGGTCGGAGGTTGCCATTCATTGGCCGCGGAGTCACCTAGTGCAG	4310 fluorescence intensity (a.u.)
CCCCATTGACGCCCACGCACGCCCACACCTCCCCATCAACCGGAGTCACCTAGTGCAG	3280 fluorescence intensity (a.u.)
CGATGGCTACGGAGGAGGCGGCTCCACGACGCTACCGTCGCGGAGTCACCTAGTGCAG	16600 fluorescence intensity (a.u.)
TCAACGATATACATGATCAGAGTAGGTGACGTGACGACATCGGAGTCACCTAGTGCAG	5400 fluorescence intensity (a.u.)
CGACGCCGGGGAGTGCCCCTTCTTGAGCGACCAGGTCACCCGGAGTCACCTAGTGCAG	3240 fluorescence intensity (a.u.)
GCCGCGGGGTCATACAACGTTGTGGATGACGTAGATGGGCCGGAGTCACCTAGTGCAG	7500 fluorescence intensity (a.u.)
AGCATGAATACTTTTGTGCAAGCTAACGCTGAGCACGATGCGGAGTCACCTAGTGCAG	3980 fluorescence intensity (a.u.)
GCAAAGCCCTCCTCTTCAGCTCTTCTGACGGAAAAGACCACGGAGTCACCTAGTGCAG	3830 fluorescence intensity (a.u.)
ACCCGACCTGCCACGTCGGACCAAGTCCAACGCATTTCCGCGGAGTCACCTAGTGCAG	12100 fluorescence intensity (a.u.)

Sequence	binding signal
CGTCGATGGCGTGCGTGAGAGCCTCCACGCCTTGCTGCCGCGGAGTCACCTAGTGCAG	4660 fluorescence intensity (a.u.)
CAGAGACATCCACACATTCGTCAGCTCGCTGGCGTCCACGCGGAGTCACCTAGTGCAG	3870 fluorescence intensity (a.u.)
AGAATTTAAAAGATTCCTAACCAGGCAAACGAACAGAGCCCGGAGTCACCTAGTGCAG	16000 fluorescence intensity (a.u.)
TGTCTCCTTCGTCACTGGCCACGGCGGTATATAACTCCCTCGGAGTCACCTAGTGCAG	23600 fluorescence intensity (a.u.)
ATTGACAAGATAGATTGTTGCCCAATTTTCGAAGATGCTCCGGAGTCACCTAGTGCAG	13400 fluorescence intensity (a.u.)
GGGTTCCGTCCATTCCGCGCCGTTAAATGCATGTTCATTCCGGAGTCACCTAGTGCAG	3390 fluorescence intensity (a.u.)
CGTTGCGTTGCGTGGCGTCCTCTTCCCTCCAGTCCCCGCCCGGAGTCACCTAGTGCAG	5560 fluorescence intensity (a.u.)
GCCGCGATGTCATCGCTAAGTCCTGATGCCGTGTCGCCGTCGGAGTCACCTAGTGCAG	5130 fluorescence intensity (a.u.)
CGCGCCGTCGCGGATCACCTGCAGGCCGCCGACGTGGTCCCGGAGTCACCTAGTGCAG	6950 fluorescence intensity (a.u.)
TCCGAGACTGTTAGATCCCCGGGCCCACACGTCAGTCTCACGGAGTCACCTAGTGCAG	3820 fluorescence intensity (a.u.)
TTGGTGTTGAATACCTTTCAGATGTGGCATCTCAACTGGGCGGAGTCACCTAGTGCAG	4300 fluorescence intensity (a.u.)
CGGCTTCCCTGGTGGCTCAAGACACGTCATTCCGATCCGTCGGAGTCACCTAGTGCAG	16900 fluorescence intensity (a.u.)
GTAGTACTGAACGTCATCTAACAAACATGGGTCGTTCGATCGGAGTCACCTAGTGCAG	4120 fluorescence intensity (a.u.)
GGAGGGAAAGGGAAGGAAGAGAAGAGAGTATGTGGCACTGCGGAGTCACCTAGTGCAG	3660 fluorescence intensity (a.u.)
TATGGTAGTTGATGTGCAATGACTCGAGCAAATGGCGCTGCGGAGTCACCTAGTGCAG	4510 fluorescence intensity (a.u.)
ATTGCTTGTTTGAGTTGTATTATCAAATGTTACCGTAGTGCGGAGTCACCTAGTGCAG	3400 fluorescence intensity (a.u.)
GCCATCCCGCTCGAACGCCGTCTTCTTGCTGCCCCAAAGGCGGAGTCACCTAGTGCAG	22100 fluorescence intensity (a.u.)
CCAAATTGTGTTGTCACCAAACATAAGGTACTATCTGTTTCGGAGTCACCTAGTGCAG	3460 fluorescence intensity (a.u.)
ATGGTCCGTCTGAAATCTAAATGGGTCCATATCCAGGAAACGGAGTCACCTAGTGCAG	3240 fluorescence intensity (a.u.)
AGGCATTTTAACAGTAGTAAGCATTTCACAAAGTGTACCACGGAGTCACCTAGTGCAG	25000 fluorescence intensity (a.u.)
ACCACACCATCGAACATGGTGTAGCTCACGGTAGTCCCAACGGAGTCACCTAGTGCAG	41000 fluorescence intensity (a.u.)

Another view of part of the listing above.
GGAGGGAAAGGGAAGGAAGAGAAGAGAGTATGTGGCACTGCGGAGTCACCTAGTGCAG
  binding signal = 3660 fluorescence intensity (a.u.)
ATTGCTTGTTTGAGTTGTATTATCAAATGTTACCGTAGTGCGGAGTCACCTAGTGCAG
  binding signal = 3400 fluorescence intensity (a.u.)
GCCATCCCGCTCGAACGCCGTCTTCTTGCTGCCCCAAAGGCGGAGTCACCTAGTGCAG
  binding signal = 22100 fluorescence intensity (a.u.)
